Binding data for one substance are collected here from paper PMC9945352.

Amino acid sequences for entries named in this document (tags omitted).
UniProt Q9UBN7: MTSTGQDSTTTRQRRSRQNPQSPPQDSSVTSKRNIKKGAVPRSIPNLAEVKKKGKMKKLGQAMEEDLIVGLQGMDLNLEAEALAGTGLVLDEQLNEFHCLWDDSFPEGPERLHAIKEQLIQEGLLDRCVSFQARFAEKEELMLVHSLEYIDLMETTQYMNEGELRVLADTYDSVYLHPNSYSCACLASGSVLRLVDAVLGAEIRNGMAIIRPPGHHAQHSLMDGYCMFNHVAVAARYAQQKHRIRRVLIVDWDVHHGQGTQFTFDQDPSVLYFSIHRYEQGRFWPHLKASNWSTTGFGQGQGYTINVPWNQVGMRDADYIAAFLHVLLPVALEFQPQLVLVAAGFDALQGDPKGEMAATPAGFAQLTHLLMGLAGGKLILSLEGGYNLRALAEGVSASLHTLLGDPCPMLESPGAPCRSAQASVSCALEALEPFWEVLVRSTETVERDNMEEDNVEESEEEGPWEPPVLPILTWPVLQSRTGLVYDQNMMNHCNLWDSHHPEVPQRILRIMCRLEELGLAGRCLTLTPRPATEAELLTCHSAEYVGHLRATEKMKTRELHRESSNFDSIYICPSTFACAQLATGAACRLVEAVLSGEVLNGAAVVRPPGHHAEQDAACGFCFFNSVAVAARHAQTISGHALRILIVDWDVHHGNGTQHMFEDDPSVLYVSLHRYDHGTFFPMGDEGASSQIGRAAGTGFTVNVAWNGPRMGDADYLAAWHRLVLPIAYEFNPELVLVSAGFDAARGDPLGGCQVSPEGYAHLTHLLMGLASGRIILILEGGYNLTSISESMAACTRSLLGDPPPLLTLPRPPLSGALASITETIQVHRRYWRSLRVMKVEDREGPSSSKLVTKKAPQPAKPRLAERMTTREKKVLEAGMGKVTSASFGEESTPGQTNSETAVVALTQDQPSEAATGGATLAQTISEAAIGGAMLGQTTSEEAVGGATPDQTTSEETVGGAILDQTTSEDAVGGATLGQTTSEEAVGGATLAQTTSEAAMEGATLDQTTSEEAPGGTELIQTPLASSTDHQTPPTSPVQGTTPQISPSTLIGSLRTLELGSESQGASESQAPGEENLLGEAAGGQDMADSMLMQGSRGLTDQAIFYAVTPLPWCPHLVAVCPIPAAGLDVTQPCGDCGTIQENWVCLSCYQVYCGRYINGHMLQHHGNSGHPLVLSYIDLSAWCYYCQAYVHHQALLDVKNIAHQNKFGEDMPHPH

Results are given in words; binding and its absence hold for the method and conditions named. In cells and extracts the contact can be indirect. Some results given as binding are weak or reduced against the parent protein; the word gives no strength.

This test deals with T1, SMAR1 (human (endogenous in CAL62 and 8305C)) (UniProt Q8N9N5).
T1 sequence: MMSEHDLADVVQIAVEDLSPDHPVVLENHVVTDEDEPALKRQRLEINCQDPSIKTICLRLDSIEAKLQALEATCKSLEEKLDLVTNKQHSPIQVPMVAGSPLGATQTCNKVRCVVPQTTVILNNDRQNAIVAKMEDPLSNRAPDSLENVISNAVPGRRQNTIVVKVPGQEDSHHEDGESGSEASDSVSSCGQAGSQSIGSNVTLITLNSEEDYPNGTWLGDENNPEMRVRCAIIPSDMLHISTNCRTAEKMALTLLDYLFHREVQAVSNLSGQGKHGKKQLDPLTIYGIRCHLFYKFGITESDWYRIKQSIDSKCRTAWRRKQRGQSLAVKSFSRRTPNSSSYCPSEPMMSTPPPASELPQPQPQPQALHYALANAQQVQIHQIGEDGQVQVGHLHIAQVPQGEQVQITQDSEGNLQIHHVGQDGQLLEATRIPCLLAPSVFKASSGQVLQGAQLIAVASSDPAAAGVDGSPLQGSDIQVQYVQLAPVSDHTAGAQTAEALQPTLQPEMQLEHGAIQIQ
As to the kind of experiment: co-IP; endogenous SMAR1 and HDAC6, co-IP with western blotting in shRBX1-CAL62 cells (RBX1 knock-down) and HA-RBX1-8305C cells (RBX1 overexpression).

As for HDAC6 (from UniProt Q9UBN7 1-1215), the binding result is recorded as “binds”.
